From ChEMBL document CHEMBL3988442, “University of Dundee, Small-Polar-MMV Screening Library” (2021).

By UniProt entry, the sequences of proteins in these tests, tags left out.
UniProt E9BF75, entry or part of it: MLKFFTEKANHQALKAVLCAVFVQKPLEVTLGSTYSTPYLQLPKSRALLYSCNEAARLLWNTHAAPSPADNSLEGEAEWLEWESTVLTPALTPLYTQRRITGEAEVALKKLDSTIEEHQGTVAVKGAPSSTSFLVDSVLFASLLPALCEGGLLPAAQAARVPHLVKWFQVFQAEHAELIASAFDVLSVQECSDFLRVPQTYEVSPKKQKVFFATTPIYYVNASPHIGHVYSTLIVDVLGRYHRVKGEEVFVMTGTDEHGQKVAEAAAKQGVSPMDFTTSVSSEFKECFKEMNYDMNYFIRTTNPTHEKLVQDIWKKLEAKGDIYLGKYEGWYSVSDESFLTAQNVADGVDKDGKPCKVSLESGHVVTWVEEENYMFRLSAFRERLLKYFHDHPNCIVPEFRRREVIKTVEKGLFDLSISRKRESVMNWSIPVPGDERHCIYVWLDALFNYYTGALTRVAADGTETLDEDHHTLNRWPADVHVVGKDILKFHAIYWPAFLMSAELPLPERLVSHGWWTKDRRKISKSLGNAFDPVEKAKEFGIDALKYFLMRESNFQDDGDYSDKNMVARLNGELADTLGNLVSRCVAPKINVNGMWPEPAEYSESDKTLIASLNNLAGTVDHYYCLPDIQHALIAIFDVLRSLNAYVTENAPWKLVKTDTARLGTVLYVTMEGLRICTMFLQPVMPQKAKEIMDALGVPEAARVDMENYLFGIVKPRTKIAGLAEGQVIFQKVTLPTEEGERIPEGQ

Mtb heat-shock: 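Assay on Mycobacterium tuberculosis, filed only as a heat shock assay from Cornell; the read-out is not stated. The concentration is filed as 10 mM, unlikely as a test dose, so the dose is not known. Higher reads as stronger inhibition (inferred: compounds with an IC50 in retests scored well above the rest). About 69,000 compounds were tested under these conditions; 1.4% (about 930) showed 50% or more at least once.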
LdMetRS: 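Methionyl-tRNA synthetase (putative), Leishmania donovani (UniProt E9BF75). Primary screen of methionyl-tRNA synthetase; the read-out is not stated. The test concentration is not given. Values are per cent inhibition. About 68,000 compounds were tested under these conditions; 0.035% (about 24) showed 50% or more at least once.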
Mtb growth Cornell: 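Whole-cell assay for inhibitors of Mycobacterium tuberculosis growth, labelled Cornell in the record; the read-out is not stated. The concentration is filed as 10 mM, unlikely as a test dose, so the dose is not known. Higher means stronger inhibition (inferred from two other growth screens of the library). Size under these conditions: about 53,000 compounds, about 900 of them at 50% or above in at least one test.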

All values are in %. The controls that fix the scale are not given in the record; negative values are as filed. The compounds are a random part of those screened. A dash means the value is not listed here; it may have been measured.

With O=C(O)C(F)(F)F.O=C(O)C(F)(F)F.[H][C@@]12OCCN(Cc3ccsc3)[C@@]1([H])CC[C@H]2OCc1ccccn1 the screen gave Mtb heat-shock: -28.68%. c1cc(-c2nc(CN3CCn4c(nnc4C4CC4)C3)cs2)cs1 gave Mtb heat-shock: 159.7%; LdMetRS: 15.95%; Mtb growth Cornell: 10.84%. Result for [H][C@]12CN(c3ncccn3)C[C@@]1([H])S(=O)(=O)CC[C@H]2C(=O)N1CCOCC1 was Mtb heat-shock: 33.98%; Mtb growth Cornell: 6.615%. O=C(CCn1cccn1)NS(=O)(=O)N1CCCc2ccccc21 gave Mtb heat-shock: -9.844%; LdMetRS: 9.777%; Mtb growth Cornell: -9.802%.

CN(Cc1ccccn1)c1nccc(N2CCN[C@H]3CS(=O)(=O)C[C@H]32)n1 gave LdMetRS: 11.46%. [H][C@]12CCCN(S(=O)(=O)c3ccc(Cl)s3)[C@@]1([H])CN(C(=O)CC(C)C)C2 gave Mtb heat-shock: -22.62%; Mtb growth Cornell: -19.95%. Cn1ccnc1CNC(=O)N(CCCO)C1CCc2ccccc21 (stereo not drawn) read Mtb heat-shock: -29.59%; LdMetRS: 10.08%; Mtb growth Cornell: -2.982%. With Cc1ccc(Br)cc1NC(=O)NCC(O)CO (stereo not drawn) the screen gave Mtb heat-shock: -3.128%; LdMetRS: 5.415%; Mtb growth Cornell: -28.33%.

CCn1cc2c(n1)CN(S(=O)(=O)c1cn(C)cn1)CC2COC (stereo not drawn) gave LdMetRS: 10.8%. For Cc1ncsc1CCN1CCN(C(=O)c2ccc(=O)[nH]c2)CC1 the result was Mtb heat-shock: 30.04%; LdMetRS: 9.574%; Mtb growth Cornell: 23.63%. Result for Cc1nccc(-c2cccc(NCC(=O)N3CCc4sccc4C3)c2)n1 was Mtb heat-shock: 2.236%; LdMetRS: 17.32%; Mtb growth Cornell: 35.8%. c1cnc(Nc2cncc(C3CCCN(c4ncccn4)C3)n2)nc1 (stereo not drawn) gave Mtb heat-shock: -2.083%; LdMetRS: -10.73%; Mtb growth Cornell: 7.421%.

For O=C(NCc1cc[nH]n1)NCC(O)c1ccccc1F (stereo not drawn) the result was Mtb heat-shock: 4.04%; LdMetRS: 16.87%. O=C(O)C(F)(F)F.[H][C@]12CCC[C@@]1(COCc1ccncc1)CN(C(=O)c1ccc(F)cc1)C2 read Mtb heat-shock: 0.3251%; Mtb growth Cornell: -9.277%. For COCC1CN(C(=O)COc2ccccc2)Cc2ncn(C)c21 (stereo not drawn) the result was LdMetRS: 17.03%. For COCCn1c2c(ccc1=O)CC(NCc1cnn(C)c1)CC2 (stereo not drawn) the result was Mtb heat-shock: -9.524%; LdMetRS: 1.173%; Mtb growth Cornell: -20.17%.

For O=C(O)C(F)(F)F.[H][C@@]12CCN(c3nncs3)C[C@@]1([H])O[C@@H](C(=O)NCCOC)C2 the result was Mtb heat-shock: 4.269%; Mtb growth Cornell: 9.411%. N#Cc1cc(F)c(N2CCC(NS(=O)(=O)c3cccs3)CC2)c(F)c1 read Mtb heat-shock: 23.02%; LdMetRS: 11.54%; Mtb growth Cornell: 12.48%. For CC(C)SCC(=O)N1Cc2cnc(-c3ccccc3)nc2C1 the result was Mtb heat-shock: -4.445%; LdMetRS: 14.29%. CC(C)c1noc(Cn2ncc3ccccc3c2=O)n1 gave Mtb heat-shock: -14.27%; LdMetRS: 9.023%; Mtb growth Cornell: 20.98%.

Result for CC(C)(C)c1cc(CN2CC[C@@H](NC(=O)c3cccnc3)[C@H](O)C2)n[nH]1 was Mtb heat-shock: -8.945%; LdMetRS: 11.5%; Mtb growth Cornell: 9.792%. CSCC(=O)N1CCc2nc(C)nc(NCc3ccccc3)c2CC1 gave Mtb heat-shock: -1.862%; LdMetRS: 8.824%; Mtb growth Cornell: 7.399%. [H][C@@]12CN(S(C)(=O)=O)C[C@]1(C(=O)NC)CCC21CCN(C(=O)NC)CC1 read Mtb heat-shock: -18.99%. Result for Cc1cc(CN2C[C@@H]3COC[C@]3(CNC(=O)c3ccco3)C2)no1 was LdMetRS: 23.08%.

With O=C(O)C(F)(F)F.[H][C@@]12COC[C@H](C(=O)N3CCCCO3)[C@]1([H])CN(C1CCCC1)C2 the screen gave Mtb heat-shock: -7.24%; Mtb growth Cornell: 14.8%. [H][C@@]12CN(Cc3ccoc3)CCO[C@]1([H])CN(C(=O)N1CCCC1)C2 gave Mtb heat-shock: 8.641%; Mtb growth Cornell: 27.37%. Cc1cnn(Cc2cc(F)ccc2F)c1NC(=O)NC1CC1 gave Mtb heat-shock: -5.828%; LdMetRS: 15.61%; Mtb growth Cornell: 17.94%. With COc1cccc(N2Cc3nc(=O)[nH]n3C2=O)c1 the screen gave Mtb heat-shock: 7.563%; LdMetRS: 13.77%; Mtb growth Cornell: -50.08%.

Cc1nn(C)c(C)c1C1CCCN1C(=O)CCCc1ccccn1 (stereo not drawn) gave Mtb heat-shock: -5.075%; LdMetRS: 14.77%. CC(C)c1noc(C2CCCN2S(=O)(=O)N2CCCCCC2)n1 (stereo not drawn) read Mtb heat-shock: -33.13%; LdMetRS: 6.593%. With CCc1ccccc1OC1CN(C(=O)CN(C)Cc2cccnc2)C1 the screen gave Mtb heat-shock: 1.174%; LdMetRS: 8.065%; Mtb growth Cornell: -11.96%. COc1cc(-c2nc(C3CC3)nn2-c2ccnc(C)c2)nc(OC)n1 read Mtb heat-shock: -30.41%; LdMetRS: 8.527%; Mtb growth Cornell: 26.42%.

For CCOC(=O)CNC(=O)N1CCCC(CNC(=O)c2ccco2)C1 (stereo not drawn) the result was Mtb heat-shock: -10.51%; LdMetRS: 9.355%; Mtb growth Cornell: -11.96%. CCOCc1nn(CC2CC2)c2c1CN(C(=O)c1ccno1)CC2 read Mtb heat-shock: -11.54%; LdMetRS: 7.266%; Mtb growth Cornell: 7.724%.

4 of the entries, repeated:

Compound	Mtb heat-shock	LdMetRS	Mtb growth Cornell
CCOC(=O)CNC(=O)N1CCCC(CNC(=O)c2ccco2)C1 (stereo not drawn)	-10.51	9.355	-11.96
[H][C@]12CN(c3ncccn3)C[C@@]1([H])S(=O)(=O)CC[C@H]2C(=O)N1CCOCC1	33.98	-	6.615
c1cnc(Nc2cncc(C3CCCN(c4ncccn4)C3)n2)nc1 (stereo not drawn)	-2.083	-10.73	7.421
Cc1ccc(Br)cc1NC(=O)NCC(O)CO (stereo not drawn)	-3.128	5.415	-28.33